For experiment [1], the target named is HER2 immunoprecipitated from the membrane fraction of HER2-type breast cancer cells (HER2 solution) (human) (UniProt P04626). Nature of the experiment: lectin array (legend of Fig. 2).
For experiment [2] the target is unchanged. Nature of the experiment: lectin array with immunoprecipitated HER2, with and without PNGase F.

These are yes or no findings as the source states them, for the method shown. Some entries that bind do so weakly or less than the wild type.

B1: UEA-I (protein, UniProt P22972 1-243, looked up)
chain: SDDLSFKFKNFSQNGKDLSFQGDASVIETGVLQLNKVGNNLPDETGGIARYIAPIHIWNCNTGEVASFITSFSFFMETSANPKAATDGLTFFLAPPDSPLRRAGGYFGLFEDTKDNDSSYQTVAVEFDTIGSPVNFDDPGFPHIGIDVNRVKSINAERWNKRYGLNNVANVEIIYEASSKTLTASLTYPSDQTSISVTSIVDLKEILPEWVSVGFSGGTYIGRQATHEVLNWYFTSNLINTNS
As for B1, the binding result in experiment [1] and in experiment [2] was “binds” throughout.
